The record followed here is the supplement of paper PMC8007513.

SMILES strings stand for the structures. This is one part of the list. Repeats are few or missing, and single values can be far off.

The assay relates to Saccharomyces cerevisiae BY4743. Description: growth (OD600) with compound + IPBC relative to untreated control; higher = less growth inhibition. To be noted: compound concentration: 133 uM; IPBC concentration: 0.5 ug/ml; 20 h. Here is the method:
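NMCCC compounds (133 uM) combined with IPBC (0.5 ug/ml) against Saccharomyces cerevisiae BY4743 in YPD, 96-well plates. Growth was read as OD600 at 20 h and expressed as % of the untreated control. Single pass.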
For `CSc1nc(C)c(CCC(=O)OCc2ccc(C(=O)N3CCCC3)cc2)c(C)n1` + CCCCNC(=O)OCC#CI [3-iodo-2-propynyl butylcarbamate (IPBC)], the growth is 99.9%.

Turning to `COc1cc(CSc2nnc(C)s2)c(OC)cc1Br` + CCCCNC(=O)OCC#CI [3-iodo-2-propynyl butylcarbamate (IPBC)], the growth amounted to 98.8%.

Take `Cc1csc(SCC(=O)N(C)Cc2ccc(C)o2)n1` + CCCCNC(=O)OCC#CI [3-iodo-2-propynyl butylcarbamate (IPBC)]: the growth was 104%.

For `Cc1sc(NC(=O)c2cccc(NC(=O)C3CCCO3)c2)c(C#N)c1C` (centres undefined) + CCCCNC(=O)OCC#CI [3-iodo-2-propynyl butylcarbamate (IPBC)], the growth amounted to 91.3%.

Consider `Cc1cc(-c2ccco2)n(CC(=O)NCc2ccccc2Cl)n1` + CCCCNC(=O)OCC#CI [3-iodo-2-propynyl butylcarbamate (IPBC)], for which the growth amounted to 93.4%.

Turning to `C=C1N(CCc2ccccn2)C(=O)OC12CCCCC2` + CCCCNC(=O)OCC#CI [3-iodo-2-propynyl butylcarbamate (IPBC)], the growth came to 81.9%.

For the compound `CCOC(=O)C/1=C(\C)OC(=O)/C(=C1)NC(=O)C2=CC=CC=C2OC` + CCCCNC(=O)OCC#CI [3-iodo-2-propynyl butylcarbamate (IPBC)], the growth was 84.3%.

`O=C(Cc1cccc(F)c1)NCC(=O)Nn1cnc2ccccc21` + CCCCNC(=O)OCC#CI [3-iodo-2-propynyl butylcarbamate (IPBC)]: the growth turned out to be 93.3%.

On to `COc1cc(OC)c(NC(=O)NC(C(=O)N2CCc3ccccc32)C(C)C)cc1Cl` (centres undefined) + CCCCNC(=O)OCC#CI [3-iodo-2-propynyl butylcarbamate (IPBC)], for which the growth worked out at 93.6%.

In the case of `CC(C)CNC(=O)c1cc(-c2ccc(Cl)c(Cl)c2)on1` + CCCCNC(=O)OCC#CI [3-iodo-2-propynyl butylcarbamate (IPBC)], the growth is 94.9%.

`CN1\C=C/C(=C\C1=O)C(=O)NCC2=CC=CC=C2OC(F)(F)F` + CCCCNC(=O)OCC#CI [3-iodo-2-propynyl butylcarbamate (IPBC)]: the growth came out at 100%.

Consider `COc1nccc(N(C)C)c1NC(=O)c1cnn(-c2ccccc2)n1` + CCCCNC(=O)OCC#CI [3-iodo-2-propynyl butylcarbamate (IPBC)], for which the growth was 80.3%.

Turning to `Cc1csc(SCC(=O)NC(C)C(c2ccccc2)N2CCOCC2)n1` (centres undefined) + CCCCNC(=O)OCC#CI [3-iodo-2-propynyl butylcarbamate (IPBC)], the growth is 97.9%.

For the compound `CN(C)CCSc1nnc2sc3ccccc3n12` + CCCCNC(=O)OCC#CI [3-iodo-2-propynyl butylcarbamate (IPBC)], the growth is 86.6%.

Take `CCOC(=O)\C1=C(/C)NC(=O)NC1C2=C(C)SC(=C2)C` (centres undefined) + CCCCNC(=O)OCC#CI [3-iodo-2-propynyl butylcarbamate (IPBC)]: the growth turned out to be 97.7%.

Regarding `CCOC(=O)c1cn(CC(=O)Nc2cc(C)cc(C)c2)nn1` + CCCCNC(=O)OCC#CI [3-iodo-2-propynyl butylcarbamate (IPBC)], the growth was determined as 90.3%.

Turning to `CCCCc1nnc(NC(=O)COc2ccccc2-c2ccccc2)s1` + CCCCNC(=O)OCC#CI [3-iodo-2-propynyl butylcarbamate (IPBC)], the growth was found to be 98.6%.

As to `O=S(=O)(NC1CCCCCC1)c1ccc(-c2ccno2)s1` + CCCCNC(=O)OCC#CI [3-iodo-2-propynyl butylcarbamate (IPBC)], the growth was determined as 80.2%.

For `CCN(CC)S(=O)(=O)c1c(C)nn(Cc2coc(-c3cccs3)n2)c1C` + CCCCNC(=O)OCC#CI [3-iodo-2-propynyl butylcarbamate (IPBC)], the growth turned out to be 94.9%.

Regarding `CCN(CC)CCNc1nc2c(c(=O)[nH]c(=O)n2C)n1CC(C)C` + CCCCNC(=O)OCC#CI [3-iodo-2-propynyl butylcarbamate (IPBC)], the growth worked out at 91.1%.

In the case of `Cc1ccc(CNS(=O)(=O)c2ccc3c(c2)C(C)(C)C(=O)N3)cc1` + CCCCNC(=O)OCC#CI [3-iodo-2-propynyl butylcarbamate (IPBC)], the growth was found to be 107%.

As to `CCCOc1ccc(C(F)(F)F)cc1NC(=O)C1CSC2(C)CCC(=O)N12` (centres undefined) + CCCCNC(=O)OCC#CI [3-iodo-2-propynyl butylcarbamate (IPBC)], the growth was 82.2%.

For the compound `COC(=O)c1ccc(C(=O)Nc2ccccc2C(=O)NCc2ccccc2)s1` + CCCCNC(=O)OCC#CI [3-iodo-2-propynyl butylcarbamate (IPBC)], the growth was found to be 108%.

With `COc1ccc(S(=O)(=O)Nc2c(C)cc(C)cc2C)cc1N(C)S(C)(=O)=O` + CCCCNC(=O)OCC#CI [3-iodo-2-propynyl butylcarbamate (IPBC)], the growth was 92.6%.

For the compound `Cc1ccc(-c2noc(CCCC(=O)Nc3nncs3)n2)cc1` + CCCCNC(=O)OCC#CI [3-iodo-2-propynyl butylcarbamate (IPBC)], the growth worked out at 79.3%.

As for `O=c1ccc(-c2ccccc2F)nn1C/C=C/c1ccccc1` + CCCCNC(=O)OCC#CI [3-iodo-2-propynyl butylcarbamate (IPBC)], the growth stood at 87.1%.

As for `CCCNC(=O)CN(C)C(=O)c1ccc(-c2cc(Cl)ccc2Cl)o1` + CCCCNC(=O)OCC#CI [3-iodo-2-propynyl butylcarbamate (IPBC)], the growth amounted to 73.3%.

For the compound `Cc1ccc(NC(=O)C2(N(C)C(=O)c3ccccn3)CCCCC2)cc1Br` + CCCCNC(=O)OCC#CI [3-iodo-2-propynyl butylcarbamate (IPBC)], the growth amounted to 103%.

Consider `CN(Cc1ccco1)C(=O)c1ccc(N2CCCS2(=O)=O)cc1` + CCCCNC(=O)OCC#CI [3-iodo-2-propynyl butylcarbamate (IPBC)], for which the growth turned out to be 108%.

In the case of `O=C(CCSc1nnc(Nc2ccccc2F)s1)Nc1ccccc1F` + CCCCNC(=O)OCC#CI [3-iodo-2-propynyl butylcarbamate (IPBC)], the growth is 89.5%.

`C=C1c2ccccc2C(=O)N1CC(=O)Nc1ccc(Cl)c(Cl)c1` + CCCCNC(=O)OCC#CI [3-iodo-2-propynyl butylcarbamate (IPBC)]: the growth was determined as 105%.

In the case of `CN(C(=O)Cn1c(=O)[nH]c2ccccc2c1=O)C1CCS(=O)(=O)C1` (centres undefined) + CCCCNC(=O)OCC#CI [3-iodo-2-propynyl butylcarbamate (IPBC)], the growth amounted to 98.6%.

In the case of `CCCSc1nsc(NC(=O)COC(=O)c2occc2C)n1` + CCCCNC(=O)OCC#CI [3-iodo-2-propynyl butylcarbamate (IPBC)], the growth amounted to 83.3%.

As for `O=C(COC(=O)c1ncc(Cl)c(Cl)c1Cl)NC(=O)c1ccccc1` + CCCCNC(=O)OCC#CI [3-iodo-2-propynyl butylcarbamate (IPBC)], the growth came out at 99.6%.

In the case of `CCN(CC(=O)Nc1sccc1C#N)Cc1ccc2c(c1)OCO2` + CCCCNC(=O)OCC#CI [3-iodo-2-propynyl butylcarbamate (IPBC)], the growth stood at 94.6%.

For `CCOC(=O)c1c(-c2ccc(Cl)cc2)nn2c1NCN(CCOC)C2` + CCCCNC(=O)OCC#CI [3-iodo-2-propynyl butylcarbamate (IPBC)], the growth is 93.1%.

As to `CCC(Sc1nc2ccc[nH]c-2n1)C(=O)NCC1CCCO1` (centres undefined) + CCCCNC(=O)OCC#CI [3-iodo-2-propynyl butylcarbamate (IPBC)], the growth came out at 88%.

For `CC(C)CC(NS(=O)(=O)c1ccc2c(c1)CCCC(=O)N2)C(=O)N1CCOCC1` (centres undefined) + CCCCNC(=O)OCC#CI [3-iodo-2-propynyl butylcarbamate (IPBC)], the growth was determined as 110%.

For the compound `COc1cc(C(C)NC(=O)c2c(-c3ccccc3)noc2C)cc(OC)c1OC` (centres undefined) + CCCCNC(=O)OCC#CI [3-iodo-2-propynyl butylcarbamate (IPBC)], the growth is 106%.
